In PubChem BioAssay AID1487 (National Center for Advancing Translational Sciences (NCATS), 2009):
Where “and” joins values, the source holds several entries; their conditions need not be identical. Identical values can stand only once. The list shows a part of the results. Further columns of the screen follow, without active or inactive calls. Compounds called inactive in the main read-out are mostly missing here. The note in brackets gives the kind of curve behind each potency; many fits are weak.

Assay: qHTS Assay for Modulators of Lamin A Splicing
Settings: HeLa LMNA splicing GFP/RFP minigene ratio, 48 h
Procedure, shortened: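 S3 HeLa stable clones carrying a lamin A-EGFP splicing minigene plus DsRed2 were seeded at 600 cells/well in Opti-MEM with 2% FBS, pin-dosed and incubated 48 h at 37°C. Acumen cytometry (488 nm) gave the GFP/RFP total-intensity ratio.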

[1] = measured here: RFP viability control channel
[2] = measured here: GFP splicing reporter channel

| SMILES | AC50 [1] | AC50 [2] |
| --- | --- | --- |
| CCOC(=O)c1c(NC(=O)C2=C(C)NC(=S)NC2c2ccc(C)cc2)sc(C)c1C (centres undefined) | 35.5 µM [rising, single point] |  |
| O=C(Nc1cccc(S(=O)(=O)N2CCCC2)c1)c1ccc2c(c1)OCO2 | 25.1 µM [rising, single point] | 15.8 µM [rising, single point] |
| Cc1nc(-c2cccc(S(=O)(=O)N3CC(C)CC(C)C3)c2)cs1 (centres undefined) | 20 µM [rising, single point] | 14.1 µM [rising, single point] |
| CCOc1ccc(NC(=O)Nc2cc(C)ccc2OC)cc1 | 3.55 µM [rising, single point] | 1 µM [rising, partial curve, poor fit] |
| CNC(=S)N/N=C/c1cc(Br)cc(Br)c1O | 12.6 µM [rising, single point] |  |
| COc1ccc(NS(=O)(=O)c2ccc3nc(COc4cccc5ccccc45)[nH]c3c2)cc1 | 12.6 µM [rising, partial curve] |  |
| CC(C)NC(=O)c1ccc(Cn2c(SCc3ccc(F)cc3)nc3cccnc32)cc1 | 3.16 µM [falling, single point] | 3.16 µM [falling, single point] |
| CCc1cc(SC#N)cc(CC)c1NC(=O)CCl | 0.398 µM [falling, full curve, poor fit] |  |
| CCCN(CCC)S(=O)(=O)c1ccc(NS(=O)(=O)c2ccc(F)cc2)cc1 | 17.8 µM [rising, single point] | 35.5 µM [rising, single point] |
| COc1ccc2c(c1)CCc1c(C(=O)N3CC4(C)CC3CC(C)(C)C4)noc1-2 (centres undefined) | 15.8 µM [rising, single point] | 35.5 µM [rising, single point] |
| COc1ccccc1C(=O)NC(=O)CSc1cccc[n+]1[O-] | 0.00501 µM [falling, full curve, poor fit] |  |
| COc1ccc(NC(=O)c2cc3ccccc3o2)c(OC)c1 |  | 0.158 µM [falling, full curve, poor fit] |
| C/C(=N\N=C(/N)SC1CC(=O)N(c2cccc(Cl)c2)C1=O)c1cccs1 (centres undefined) | 22.4 µM [falling, single point] | 25.1 µM [falling, single point] |
| CC(=O)OC[C@H]1O[C@@H](Sc2cccc3cccnc23)[C@H](OC(C)=O)[C@@H](OC(C)=O)[C@H]1OC(C)=O | 7.08 µM [rising, full curve, poor fit] | 0.282 µM [rising, partial curve] |
| COC(=O)c1cccc(Cn2c(Cl)c(/C=N/NC(=O)c3ccccc3Cl)sc2=O)c1 | 5.62 µM [falling, partial curve] | 5.01 µM [falling, single point] |
| COc1ccc(Cl)cc1NC(=S)NCCN1CCOCC1 |  | 3.55 µM [falling, full curve, poor fit] |
| Cc1ccc(-n2cc(-c3ccccc3)c3c(=O)[nH]cnc32)cc1 | 35.5 µM [rising, single point] |  |
| COc1ccc(-c2csc3ncnc(Oc4ccc5c(C)cc(=O)oc5c4)c23)cc1 | 7.08 µM [rising, partial curve] |  |
| CC(C)c1cc(CNC(=O)CC2C(=O)NCCN2CC2CCCCC2)on1 (centres undefined) | 2 µM [falling, partial curve, poor fit] |  |

| SMILES | AC50 [1] | AC50 [2] |
| --- | --- | --- |
| CCC(=O)Nc1ccc2nc(SCCOc3ccc(C)cc3OC)sc2c1 |  | 22.4 µM [rising, partial curve, poor fit] |
| CCOC(=O)c1c(C)sc2c1N(C(C)=O)c1cc(Cl)ccc1S2 | 28.2 µM [rising, single point] | 20 µM [rising, single point] |
| O=c1c2ccccc2nc(SCc2cccc(F)c2)n1-c1cccc(S(=O)(=O)N2CCCC2)c1 | 35.5 µM [rising, single point] |  |
| O=C(/C=C/c1ccco1)NC(=S)Nc1ccc(N2CCCC2)cc1 | 20 µM [rising, partial curve, poor fit] | 11.2 µM [rising, partial curve, poor fit] |
| CC(c1ccco1)N(C(=O)COc1ccc(Cl)cc1Cl)c1ccccn1 (centres undefined) | 31.6 µM [rising, single point] |  |
| O=C(c1c(F)cccc1F)N1CCN(c2cccc(C(F)(F)F)c2)CC1 | 22.4 µM [rising, single point] | 22.4 µM [rising, single point] |
| Cc1ccccc1-n1c(C)cc(/C=C2/C(=N)N3C(c4ccccc4)=CSC3=NC2=O)c1C | 5.62 µM [rising, partial curve] |  |
| O=C(O)Cn1cccc1C(=O)c1ccccc1 | 0.794 µM [falling, full curve, poor fit] |  |
| COc1ccccc1N1CCN(C(=O)c2sc3nc(-c4ccc(F)cc4)cn3c2C)CC1 | 14.1 µM [rising, partial curve, poor fit] |  |
| CCN(CC)CCNC(=O)CN1N=C(c2ccc(OC)cc2)CCC1=O |  | 3.55 µM [rising, single point] |
| COc1cc(C(=O)NC(=S)N(CCc2ccccc2)CCc2ccccc2)cc(OC)c1OC | 22.4 µM [rising, partial curve] | 17.8 µM [rising, single point] |
| COc1ccc(CC(=O)NNC(=O)c2ccc(NC(C)=O)cc2)cc1 |  | 35.5 µM [falling, partial curve, poor fit] |
| Cc1nnc(NC(=O)CSc2nc3ccccc3[nH]2)s1 | 0.112 µM [falling, partial curve] |  |
| COc1ccc(C)cc1N(C(=O)c1ccc(F)cc1)c1nc2ccccc2s1 | 3.16 µM [rising, partial curve, poor fit] | 2.82 µM [rising, single point] |
| CC(c1ccc(C(C)(C)C)cc1)S(=O)CC(O)CO (centres undefined) | 0.0631 µM [rising, full curve, poor fit] |  |
| Cc1cc(C)c2c(=O)cc(C(F)(F)F)oc2n1 | 0.00501 µM [falling, full curve, poor fit] |  |
| CC1CCC(NC(=O)c2ccc(CS(=O)(=O)c3ccc(Cl)cc3)o2)CC1 (centres undefined) |  | 0.251 µM [falling, full curve, poor fit] |
| Cc1cccc(CNc2cc(-c3ccccc3Cl)ncn2)c1 |  | 3.55 µM [falling, partial curve, poor fit] |
| O=C(Nc1ccc2nccnc2c1)c1ccco1 |  | 0.0178 µM [rising, full curve, poor fit] |

| SMILES | AC50 [1] | AC50 [2] |
| --- | --- | --- |
| COc1cc(C(=O)N2CCN(c3ccc(C)cc3C)CC2)cc(OC)c1OC | 4.47 µM [rising, full curve] |  |
| Cc1ccc2c(c1)nnn2C1CCN(S(=O)(=O)c2ccc(C(=O)N(C)C)cc2)CC1 | 22.4 µM [rising, single point] |  |
| COc1ccc(OC)c(-c2cc(C3CCN(c4ncccc4[N+](=O)[O-])CC3)[nH]n2)c1 | 11.2 µM [rising, single point] |  |
| O[C@@](CCN1CCCC1)(c1ccccc1)C1CCCCC1 | 0.000398 µM [rising, full curve, poor fit] |  |
| CCN(CC)CCOc1ccccc1C(C)=O | 3.16 µM [falling, partial curve] | 2.51 µM [falling, full curve] |
| COc1ccc(NC(=O)C23CC4CC(C2)CC(c2ccccc2)(C4)C3)c(OC)c1 | 35.5 µM [rising, single point] |  |
| NCCCCCC(=O)O |  | 316 nM [falling, full curve, poor fit] and 5.62 µM [falling, partial curve, poor fit] |
| Cc1ccc(C(=O)c2sc(Nc3ccccc3)c(S(=O)(=O)c3ccccc3)c2N)c(C)c1 | 3.98 µM [rising, partial curve, poor fit] |  |
| CCOC(=O)c1cccc(NC(=O)Cn2c(=O)c3cccn3c3ccccc32)c1 | 11.2 µM [rising, partial curve, poor fit] |  |
| CC(C)Oc1ccc(/C=N/NC(=O)c2ccc(N(Cc3ccccc3)S(C)(=O)=O)cc2)cc1 | 12.6 µM [rising, single point] |  |
| CCC(C)NC(=O)COC(=O)c1oc2ccccc2c1CSc1ccc(Cl)cc1 (centres undefined) | 35.5 µM [rising, single point] | 11.2 µM [rising, partial curve, poor fit] |
| O=C(CNS(=O)(=O)c1ccc(Br)s1)NC1CCCc2ccccc21 (centres undefined) | 35.5 µM [rising, single point] | 35.5 µM [rising, single point] |
| CCOC(=O)C(NCCc1ccccc1F)(NC(C)=O)C(F)(F)F (centres undefined) | 17.8 µM [rising, single point] |  |
| O=C(CSCc1ccccc1)Nc1nccs1 | 3.16 µM [rising, single point] |  |
| CCc1nc(NCCN2CCOCC2)c(C#N)c2c1CCCC2 | 12.6 µM [rising, partial curve, poor fit] |  |
| C=CCNC(=O)c1onc(CSc2cc(C)ccc2C)c1C(=O)O |  | 20 µM [falling, single point] |
| O=C(NCc1ccccc1)c1cccc(COc2ccccc2Cl)c1 |  | 35.5 µM [falling, single point] |
| COC(=O)Nc1nnc(CCc2ccccc2)s1 | 0.0891 µM [rising, single point] |  |
| CCOC(=O)c1nnn(CC(=O)N2N=C(c3cccc4ccccc34)CC2c2ccccc2)c1C(=O)OCC (centres undefined) | 10 µM [rising, partial curve, poor fit] |  |
